Test results from publication PMC12309053.
Results are given in words; binding and its absence hold for the method and conditions named. In cells and extracts the contact can be indirect. A result given as binding can be weak or reduced; the word gives no strength. Sequences can lack the tags named with a protein.

Molecular target: T1, SRSF7-GFP fusion product (Serine/arginine-rich splicing factor 7, GFP-tagged at the C-terminus, from a BAC) (human) (UniProt Q16629)
T1 sequence: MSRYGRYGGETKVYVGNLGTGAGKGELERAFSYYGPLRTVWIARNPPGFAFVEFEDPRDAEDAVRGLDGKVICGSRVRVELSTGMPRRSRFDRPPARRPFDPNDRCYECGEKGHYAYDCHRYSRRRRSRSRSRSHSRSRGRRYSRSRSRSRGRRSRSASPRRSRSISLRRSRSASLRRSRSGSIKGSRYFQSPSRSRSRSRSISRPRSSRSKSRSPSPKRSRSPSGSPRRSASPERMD
Experiment: co-IP; GFP-Trap agarose beads on lysates of BAC-SRSF7-GFP MDA-MB-231 cells treated with 0.1% DMSO or 1 µM T-025 for 24 h; EBC buffer, benzonase, 300 mM NaCl, 2 h at 4 °C; six washes; Western blotting; MDA-MB-231-GFP cells as negative control

For “PRPF4B (human (endogenous in MDA-MB-231))”, the binding was “binds”.
